PubChem BioAssay AID1671190 (National Center for Advancing Translational Sciences (NCATS), 2021)
Out of some 580,000 compounds screened, about 6,100 (1.1%) were called active. The inconclusive results got no clear call from the source; some entries with a clear call stand among them for comparison. The call rests on the fitted dose curve; in most records, active means well fitted inhibition curve with a large enough effect; inconclusive means small, poorly fitted or top-dose-only effect, or another doubt; inactive means no such curve, though single readings can be large or run the other way. Where the call is inconclusive, the potency comes from a doubtful curve fit.

Chains of the proteins cited; added tags and fusions are not shown. Lines headed by an entry give the natural chain unless they say otherwise; changes in a name come on top.
UniProt P18054: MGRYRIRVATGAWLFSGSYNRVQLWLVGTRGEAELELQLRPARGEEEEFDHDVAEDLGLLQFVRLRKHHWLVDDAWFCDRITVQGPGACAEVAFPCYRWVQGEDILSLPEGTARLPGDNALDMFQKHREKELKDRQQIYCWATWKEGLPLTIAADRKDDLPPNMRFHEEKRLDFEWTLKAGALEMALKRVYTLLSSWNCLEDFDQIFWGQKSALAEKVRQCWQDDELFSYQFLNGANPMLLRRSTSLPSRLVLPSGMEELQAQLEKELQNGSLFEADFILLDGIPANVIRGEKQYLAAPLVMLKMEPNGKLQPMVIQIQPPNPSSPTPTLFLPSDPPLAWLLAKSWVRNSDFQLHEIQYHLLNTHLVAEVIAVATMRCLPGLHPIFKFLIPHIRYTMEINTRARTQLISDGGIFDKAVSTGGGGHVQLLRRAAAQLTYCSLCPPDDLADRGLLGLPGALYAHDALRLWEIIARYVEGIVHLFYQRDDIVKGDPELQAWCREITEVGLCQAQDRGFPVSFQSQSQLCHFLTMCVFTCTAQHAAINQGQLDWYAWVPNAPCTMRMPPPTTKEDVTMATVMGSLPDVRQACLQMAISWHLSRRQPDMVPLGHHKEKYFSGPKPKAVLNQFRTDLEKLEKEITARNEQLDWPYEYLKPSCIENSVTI

Biological target: Polyunsaturated fatty acid lipoxygenase ALOX12 (Homo sapiens) (UniProt P18054)
Assay: Primary qHTS assay for inhibitors of human arachidonate 12S-lipoxygenase (ALOX12): Round 2
Conditions: purified 12hLO, xylenol orange hydroperoxide absorbance; activity change, negative = inhibition: at 108 µM (top of the series) unless noted
Outline: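 Purified human 12hLO at 150 nM in 25 mM Hepes, 0.01% Triton X-100, pH 7.0, preincubated 15 min at room temperature with compound. Reaction started with 40 uM arachidonic acid, 30 min at room temperature. Hydroperoxide measured by Fe-xylenol orange, 573/405 nm absorbance ratio.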
On the % scale 0 is the no-effect control and ±100 the full control effect; potency means the concentration at half of the fitted maximal effect.

SMILES | Potency | activity change, negative = inhibition
COc1ccc([C@@H](NC(=O)c2scc3c2CCCC3)C2CC(O)C2)cn1 (stereo not given in full) | inconclusive: 1.26 µM [inhibitor, full curve, poor fit] | –
COc1cn(CC(=O)Nc2ccc(C(F)(F)F)cc2)c(CN2CCOCC2)cc1=O | – | inactive: -2.07%
Cn1cccc1C1CCCN1CC(=O)Nc1ccc(C(N)=O)cc1 (stereo not given) | inconclusive: 141 µM [inhibitor, single point] | –
Cc1ccc(C(CNC(=O)COc2ccccc2C)N2CCCCCC2)cc1 (stereo not given) | inconclusive: 3.16 µM [inhibitor, full curve] | –
Cc1ccc(Cn2c(C3CCN(C(=O)c4cccc(Cl)c4)CC3)n[nH]c2=O)cc1 | inconclusive: 28.2 µM [inhibitor, partial curve] | –
CCN(CC)c1ccc(NC(=O)CN2CCN(S(=O)(=O)c3cc(Cl)ccc3OC)CC2)cc1 | inconclusive: 25.1 µM [inhibitor, partial curve, poor fit] | –
COCCCNC(=O)CC1C[C@H](C(=O)N2CCCCC2)[C@@]2(CCc3ccccc3)c3[nH]c4ccccc4c3CCN2C1=O (stereo not given in full) | inconclusive: 35.5 µM [inhibitor, single point] | –
N#Cc1c(NC(=O)CCn2cnc3ccccc3c2=O)oc(-c2ccccc2)c1-c1ccccc1 | inconclusive: 20 µM [inhibitor, full curve, poor fit] | –
C#CCOc1ccc(C(=O)Nc2cccc3ccccc23)cc1 | inconclusive: 28.2 µM [inhibitor, partial curve, poor fit] | –
CN(Cc1ccc(F)cc1)C(=O)Cn1nc(C(N)=O)c2ccccc2c1=O | inconclusive: 112 µM [inhibitor, single point] | –
O=C(O)CCc1ccc(-c2ccc(Br)cc2)n1-c1cccc(O)c1 | inconclusive: 112 µM [inhibitor, partial curve, poor fit] | –
COc1ccc(Cl)cc1C(=O)N1CCC(Oc2ncccc2C(=O)N2CCCCC2)C1 (stereo not given) | – | inactive: -2.03%
Cc1cc(C)nc(SCc2ccc(C(=O)N/N=C/c3ccccn3)cc2)n1 | – | inactive: -0.651%
O=C(CCc1ccccc1)N[C@@H]1c2ccccc2CC[C@@H]1OCc1ccccc1 | inconclusive: 0.0891 µM [inhibitor, full curve, poor fit] | –
Cc1cc(C)c(S(=O)(=O)n2cc(C(C)C(N)C(=O)O)c3ccccc32)c(C)c1 (stereo not given) | inconclusive: 56.2 µM [inhibitor, partial curve, poor fit] | –
COc1ccccc1CNc1nc(NC(C)C)nc2cc(-c3ccccc3)sc12 | inconclusive: 44.7 µM [inhibitor, partial curve, poor fit] | –
COC(=O)c1ccc(C(=S)NCC2(N(C)C)CCCCC2)cc1 | inconclusive: 44.7 µM [inhibitor, partial curve, poor fit] | –
S=c1[nH]nc(-c2ccncc2)n1/N=C/C(Cl)=C\c1ccccc1 | inconclusive: 44.7 µM [inhibitor, partial curve, poor fit] | –
CC(C)N=C(Nc1cccnc1)c1ccccc1 | inconclusive: 28.2 µM [inhibitor, single point] | –
O=C1C(=NO)CCc2ccccc21 | inconclusive: 44.7 µM [inhibitor, partial curve] | –
O=C1CC(c2noc(-c3ccc(F)cc3)n2)CN1c1ccc(F)c(Cl)c1 (stereo not given) | – | inactive: 19%
COC(=O)C(Sc1ccc(Cl)cc1)C1SC(=S)N(Cc2ccccc2)C1=O (stereo not given) | inconclusive: 35.5 µM [inhibitor, partial curve, poor fit] | –

Reformatted with each value named: part of the list above
COC(=O)c1ccc(C(=S)NCC2(N(C)C)CCCCC2)cc1
  Potency: inconclusive: 44.7 µM [inhibitor, partial curve, poor fit]
S=c1[nH]nc(-c2ccncc2)n1/N=C/C(Cl)=C\c1ccccc1
  Potency: inconclusive: 44.7 µM [inhibitor, partial curve, poor fit]

The results go on:

SMILES | Potency | activity change, negative = inhibition
O=C1c2ccccc2C(=O)N1c1cccc2cccnc12 | – | inactive: 1.78%
COC(=O)c1ccc2nc(-c3ccc(C#N)cc3)c(Cc3ccsc3)n2c1 | inconclusive: 35.5 µM [inhibitor, partial curve, poor fit] | –
Nc1cc2c(cc1O)CCCC2 | inconclusive: 44.7 µM [inhibitor, partial curve, poor fit] | –
O=C(OCc1ccccc1)N1CCC2CC1c1cc(N3CCN(C(=S)NCCc4ccccc4)CC3)ccc12 (stereo not given) | active: 20 µM | –
c1ccc(-c2cc3nc(NCC4CC4)nc(NCC4CCCCC4)c3s2)cc1 | inconclusive: 70.8 µM [inhibitor, partial curve, poor fit] | –
CC(C)(C)CC(=O)N1CC[C@H]2CC(=O)N(c3ccccc3)CC[C@H]2C1 | – | inactive: 10.1% [at 176 µM]
C=C1C(C(=O)Nc2ccc(N(C)C)cc2)C1C(=O)Nc1ccc(N(C)C)cc1 (stereo not given) | inconclusive: 70.8 µM [inhibitor, single point] | –
CCC(C)NCCCOc1c(C)cc(C)cc1Br (stereo not given) | inconclusive: 1.26 µM [inhibitor, full curve] | –
C=CC1=C(C)C2=Cc3c(C=C)c(C)c4[n]3[Sn+2][n]3c(c(C)c(CCC(=O)O)c3=CC3=NC(=C4)C(C)=C3CCC(=O)O)=CC1=N2 | inconclusive: 6.31 µM [inhibitor, partial curve, poor fit] | –
CN(CC(=O)NC(=O)NC1CCCC1)Cc1ccco1 | – | inactive: -29.1%
COc1ccccc1N1CCN(C(=O)Cn2c(=O)oc3cc(S(=O)(=O)N4CCCC4)ccc32)CC1 | inconclusive: 0.224 µM [inhibitor, full curve, poor fit] | –
CCn1nc(C(=O)Nc2ccc(OCC(C)C)c(Cl)c2)c2ccccc2c1=O | – | inactive: 30.1%
CC[C@]1(C(=O)OC)[C@H]2C(=O)N(C)C(=O)[C@H]2[C@H]2CN(C)C(=NC3CCCCC3)N21 | inconclusive: 25.1 µM [inhibitor, single point] | –
CCCSc1ccc(C(=O)CCN(C)C)cc1 | active: 31.6 µM | –
Clc1ccc(-c2cnc(CN3CCN(c4ccccc4)CC3)o2)cc1 | – | inactive: -1.11%
O=C(Cn1ccc2cc(S(=O)(=O)N3CCCCCC3)ccc21)NCCc1ccc(Cl)cc1 | – | inactive: -20.7%
N#Cc1ccc(CSc2nnc3[nH]c(=O)cc(N)n23)cc1 | inconclusive: 35.5 µM [inhibitor, partial curve, poor fit] | –
Cc1ccccc1S(=O)(=O)Cc1ccc(C(=O)NCCN(C)C)o1 | inconclusive: 89.1 µM [inhibitor, single point] | –
O=S(=O)(/N=C(/NC(=S)Nc1ccccc1)c1ccccc1)c1ccc(Cl)cc1 | active: 39.8 µM | –
CC(OC(=O)c1nn(-c2ccccc2)c(=O)c2ccccc12)C(=O)Nc1ccc(N2CCOCC2)cc1 (stereo not given) | inconclusive: 44.7 µM [inhibitor, single point] | –
COc1ccc(Cl)cc1NC(=O)C1CC(c2ccccc2O)=NO1 (stereo not given) | inconclusive: 4.47 µM [inhibitor, full curve, poor fit] | –
COc1ccc(C(=O)N2CCN(c3cc(-c4ccc(Cl)cc4)[nH]n3)CC2)cc1F | – | inactive: 6.58%

SMILES | Potency | activity change, negative = inhibition
CN(C)c1ccc(-c2cncnc2NCc2ccccc2)cc1 | inconclusive: 2.82 µM [inhibitor, full curve, poor fit] | –
O=S(=O)(O)c1cc(O)c2cc(Nc3ccccc3)ccc2c1 | active: 35.5 µM | –
COc1ccccc1N1CCN(Cc2ccc(OC)c3ccccc23)CC1 | inconclusive: 2.82 µM [inhibitor, full curve, poor fit] | –
C[C@H](NC(=O)C1CCN(S(=O)(=O)c2ccccc2)CC1)C(=O)NCc1cccnc1 | inconclusive: 6.31 µM [inhibitor, partial curve, poor fit] | –
Cc1cc(/C=N/n2cnnc2)c(C)n1-c1cccc(Cl)c1 | inconclusive: 15.8 µM [inhibitor, partial curve, poor fit] | –
CCONC(=O)c1ccc(C(=O)NOCC)cc1 | inconclusive: 50.1 µM [inhibitor, partial curve, poor fit] | –
CC1(C)Cc2ccccc2-c2[nH]c(=S)[nH]c(=O)c21 | active: 7.94 µM | –
CCN(Cc1nc(-c2ccc(Cl)cc2)no1)C(=O)Nc1cccc2ccccc12 | inconclusive: 50.1 µM [inhibitor, partial curve, poor fit] | –
COc1ccc(C2C(C(=O)c3sc(C)nc3C)=C(O)C(=O)N2CCN2CCOCC2)cc1 (stereo not given) | inconclusive: 44.7 µM [inhibitor, single point] | –
Clc1ccc(CN2CCN(c3ncccn3)CC2)c(Cl)c1 | inconclusive: 0.562 µM [inhibitor, full curve] | –
Cc1cc(C(=O)c2cccs2)c(N)s1 | inconclusive: 39.8 µM [inhibitor, partial curve, poor fit] | –
CC(NC(=O)CSc1nnc(N2CCOCC2)n1-c1ccccc1)c1cc2ccccc2o1 (stereo not given) | – | inactive: 21.4%
Cc1ccc(Cl)cc1N1CCN(C(=O)CCCCCn2c(=O)[nH]c3ccccc3c2=O)CC1 | inconclusive: 100 µM [inhibitor, partial curve, poor fit] | –
CN(Cc1ccccc1)c1ccc2nnc(-c3ccccc3)n2n1 | inconclusive: 112 µM [inhibitor, single point] | –
Cc1ccc(NS(=O)(=O)c2ccc(C(=O)N3CCN(c4ncccn4)CC3)cc2)cc1 | – | inactive: -24.9%
CC(NC(=O)c1cccnc1)c1cccc(C(F)(F)F)c1 (stereo not given) | – | inactive: 5.83%
O=C(NC(NC(=S)Nc1ccc(Cl)c(Cl)c1)C(Cl)(Cl)Cl)c1ccco1 (stereo not given) | active: 2.82 µM | –
CN(C)/C=N/c1cc(=O)[nH]c(=O)n1CC1CC1 | – | inactive: 13.7%
Cc1cccc(-n2c(C)nnc2SCc2nc3ccccc3o2)c1 | inconclusive: 112 µM [inhibitor, single point] | –
Oc1ccc2ccccc2c1CN1CCN(C/C=C/c2ccccc2)CC1 | inconclusive: 8.91 µM [inhibitor, full curve, poor fit] | –
O=[S+]1([O-])NC2(CCN(Cc3c[nH]c4ccccc34)CC2)COc2ccccc21 | inconclusive: 56.2 µM [inhibitor, partial curve, poor fit] | –
